Changes are numbered by the printed parent chain. Results are given in words; binding and its absence hold for the method and conditions named. Binding seen in cells or lysates may run through a third protein. Some binding calls cover weakened binding; strength is not graded here.
Legend:
[1] = target: T1, Eukaryotic initiation factor 2B epsilon subunit (eIF2Bε), wild-type transgene (UniProt Q64350); assay: co-IP; left ventricular tissue lysates (Pierce IP lysis buffer) pre-cleared with G-Sepharose, eIF2Bε monoclonal antibody 4 h at 4°C, Protein G-Sepharose 4 h at 4°C, washed 4-5 times, western blot; negative control without primary antibody
T1 sequence: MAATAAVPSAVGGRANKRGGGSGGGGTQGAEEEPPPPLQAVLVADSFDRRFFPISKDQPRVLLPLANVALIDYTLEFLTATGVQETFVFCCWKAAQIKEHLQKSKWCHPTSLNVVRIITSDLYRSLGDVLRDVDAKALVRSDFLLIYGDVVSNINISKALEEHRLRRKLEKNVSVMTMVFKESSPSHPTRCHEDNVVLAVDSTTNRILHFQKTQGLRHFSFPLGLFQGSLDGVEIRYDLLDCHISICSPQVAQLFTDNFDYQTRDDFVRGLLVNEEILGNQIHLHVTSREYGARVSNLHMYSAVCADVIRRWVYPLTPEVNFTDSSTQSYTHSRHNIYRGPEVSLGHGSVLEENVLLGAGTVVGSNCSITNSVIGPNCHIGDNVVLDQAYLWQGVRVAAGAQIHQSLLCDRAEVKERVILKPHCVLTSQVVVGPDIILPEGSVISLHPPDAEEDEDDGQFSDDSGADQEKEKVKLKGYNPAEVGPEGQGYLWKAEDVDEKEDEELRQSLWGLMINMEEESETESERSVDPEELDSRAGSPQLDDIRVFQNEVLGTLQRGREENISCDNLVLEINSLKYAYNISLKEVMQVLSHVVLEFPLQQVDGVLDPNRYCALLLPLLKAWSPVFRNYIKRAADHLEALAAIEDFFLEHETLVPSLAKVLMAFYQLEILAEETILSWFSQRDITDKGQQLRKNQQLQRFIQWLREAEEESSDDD

[2] = target: T2, eIF2Bε-S535A mutant transgene (UniProt Q64350); assay: as above
T2 sequence: T1 sequence with S535A

binding [1]: binds
binding [2]: binds
B1: Dual specificity tyrosine-phosphorylation-regulated kinase 2 (DYRK2) (enzyme, UniProt Q5U4C9 1-599)
chain: MLTRKPSAAAPAAYPTGRGGDTAVRQLQASPGIGAGAPRSGVGTGPPSPIALPPLRASNATTTAHTIGGSKHTMNDHLHLNSHGQIQVQQLFEDNSNKRTVLTTQPNGLTTVGKTGLPGVPERQLESIHRRQGSSTSLKSMEGMGKVKASPMTPEQAMKQYMQKLTAFEHHEIFSYPEIYFLGPNAKKRQGMTGGPNNGGYDDDQGSYVQVPHDHVAYRYEVLKVIGKGSFGQVVKAYDHKVHQHVALKMVRNEKRFHRQAAEEIRILEHLRKQDKDNTMNVIHMLENFTFRNHICMTFELLSMNLYELIKKNKFQGFSLPLVRKFAHSILQCLDALHKNRIIHCDLKPENILLKQQGRSSIKVIDFGSSCYEHQRVYTYIQSRFYRAPEVILGARYGMPIDMWSLGCILAELLTGYPLLPGEDEGDQLACMIELLGMPSQKLLDASKRAKNFVSSKGYPRYCTVTTLSDGSVVLNGGRSRRGKLRGPPESREWGNALKGCDDPLFLDFLKQCLEWDPAVRMTPGQALRHPWLRRRLPKPPTGEKTAVKRVTESTGAITSISKLPPPSSSASKLRTNLAQMTDANGNIQQRTVLPKLVS

From paper PMC3762802
